From paper PMC7861375
Results are given in words; binding and its absence hold for the method and conditions named. Some entries that bind do so weakly or less than the wild type.

How the values were obtained:
Assay in all cases: SEC + other: negative-stain electron microscopy; TcA and TcdB2-TccC3 mixed in a 2:1 mole ratio (50 mM Tris pH 8.0, 100 mM NaCl, 5% glycerol), co-incubated at 4°C overnight, Superose 6 gel filtration; fractions by SDS-PAGE, fraction #14 by negative stain EM; both purified
[1] = biological target: TcdA1^W14-K1738S (Photorhabdus luminescens W14) (UniProt Q9RN43)
[2] = biological target: TcdA1^W14-W1721S (Photorhabdus luminescens W14) (UniProt Q9RN43)
[3] = biological target: TcdA1^W14-W1721S/K1738S (Photorhabdus luminescens W14) (UniProt Q9RN43)

Measured: binding

TcdB2-TccC3 fusion protein (P. luminescens W14) (from UniProt Q8GF99 1-1474; Q8GF97 1-960)
binds: all assays above
